{"source": "PubChem BioAssay AID1259254, NCATS | 2017", "aim": "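Genome-wide screen for genes that prevent DNA re-replication in cancer cells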 (primary screen)", "system": "human HCT116 colorectal cancer cells", "knock-down reagent": "single siRNA against human genes", "duration": "3 days", "measured": "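Imaged Hoechst DNA stain sorts each cell into a cycle phase by DNA amount; per plate, G2 fraction set to 0% for non-targeting and 100% for GMNN siRNA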", "direction": "G2 robust z-score: higher = more G2 cells, more excess DNA replication", "hit rule": "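An siRNA counts as active if its G2 robust z-score lies at least 5 MADs above the screen median; here such calls match roughly 38% of GMNN control or more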", "note": "Shown is one part, drawn at random, of about 59,000 reagents. Over the whole deposit, about 1,550 (2.6%) are marked active. 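G2 share is only a proxy for re-replication; each gene was hit by three separate siRNAs, and active genes were retested.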 Reagents against one gene are numbered here. Not all columns of the deposit are shown. No sequences are given here. Not stated in the record: the amount of reagent."}
{"gene knocked down":"LRP2BP","reagent no.":1,"G2 robust z-score":-1.35,"activity call":"inactive"}
{"gene knocked down":"LRP2BP","reagent no.":2,"G2 robust z-score":0.33,"activity call":"inactive"}
{"gene knocked down":"LRP2BP","reagent no.":3,"G2 robust z-score":0.0667,"activity call":"inactive"}
{"gene knocked down":"DPF3","reagent no.":1,"G2 robust z-score":-0.381,"activity call":"inactive"}
{"gene knocked down":"DPF3","reagent no.":2,"G2 robust z-score":3.48,"activity call":"inactive"}
{"gene knocked down":"DPF3","reagent no.":3,"G2 robust z-score":-0.873,"activity call":"inactive"}
{"gene knocked down":"RAD54B","reagent no.":1,"G2 robust z-score":-0.266,"activity call":"inactive"}
{"gene knocked down":"RAD54B","reagent no.":2,"G2 robust z-score":0.722,"activity call":"inactive"}
{"gene knocked down":"RAD54B","reagent no.":3,"G2 robust z-score":0.21,"activity call":"inactive"}
{"gene knocked down":"CCT6B","reagent no.":1,"G2 robust z-score":-0.43,"activity call":"inactive"}
{"gene knocked down":"CCT6B","reagent no.":2,"G2 robust z-score":0.272,"activity call":"inactive"}
{"gene knocked down":"CCT6B","reagent no.":3,"G2 robust z-score":-0.198,"activity call":"inactive"}

Entries above whose gene name begins with R or r (3):
{"gene knocked down":"RAD54B","reagent no.":1,"G2 robust z-score":-0.266,"activity call":"inactive"}
{"gene knocked down":"RAD54B","reagent no.":2,"G2 robust z-score":0.722,"activity call":"inactive"}
{"gene knocked down":"RAD54B","reagent no.":3,"G2 robust z-score":0.21,"activity call":"inactive"}
